# Measurements as given in the supplement of paper PMC8728848.
# The other results are listed elsewhere or left out.
# B1: XTP3-B-MRH1 (Homo sapiens), Q96DZ1 (protein)
# chain: LLEPLFKQSSCSYRIESYWTYEVCHGKHIRQYHEEKETGQKINIHEYYLGNMLAKNLLFEKEREAEEKEKSNEIPTKNIEGQMTPYYPVGMGNGTPCSLKQNRPRSSTVMYICHPESKHEILSVAEVTTCEYEVVILTPLLCSHPKYRFRA
# Experiments:
# Test in all cases: glycan array binding signal (z-score within array); higher = stronger binding
# Conditions in all cases: glycan notation: IUPAC condensed, linker removed
# [1] = target: Fuc(a1-2)Gal(b1-4)GlcNAc(b1-3)Gal(b1-4)GlcNAc(b1-2)Man(a1-3)[Fuc(a1-2)Gal(b1-4)GlcNAc(b1-3)Gal(b1-4)GlcNAc(b1-2)Man(a1-6)]Man(b1-4)GlcNAc(b1-4)GlcNAc
# Method in brief: (§1)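 Glycan array data came from 3228 arrays in the Consortium for Functional Glycomics database, and only arrays with an available protein sequence were kept. Glycan names were put into IUPAC-condensed notation, and columns mapping to the same glycan were averaged. The binding signal is a within-array Z-score, averaged across arrays of one protein sequence run at different concentrations or buffers and across linkers. A negative Z-score can be read as non-binding.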
# [2] = target: Fuc(a1-2)Gal(b1-4)GlcNAc(b1-3)Gal(b1-4)GlcNAc(b1-3)Gal(b1-4)GlcNAc
# Method in brief: as §1
# [3] = target: Fuc(a1-2)Gal(b1-4)GlcNAc(b1-3)GalNAc
# Method in brief: as §1
# [4] = target: Fuc(a1-2)Gal(b1-4)GlcNAc(b1-3)[Fuc(a1-2)Gal(b1-4)GlcNAc(b1-6)]GalNAc
# Method in brief: as §1
# [5] = target: Fuc(a1-2)Gal(b1-4)GlcNAc(b1-3)[Fuc(a1-3)[Gal(b1-4)]GlcNAc(b1-6)]Gal(b1-4)Glc
# Method in brief: as §1
# [6] = target: Fuc(a1-2)Gal(b1-4)GlcNAc(b1-6)GalNAc
# Method in brief: as §1
# [7] = target: Fuc(a1-2)Gal(b1-4)GlcNAc6S
# Method in brief: as §1
# [8] = target: Fuc(a1-2)Gal(b1-4)[Fuc(a1-3)]GlcNAc
# Method in brief: as §1
# [9] = target: Fuc(a1-2)Gal(b1-4)[Fuc(a1-3)]GlcNAc(b1-2)Man(a1-3)[Fuc(a1-2)Gal(b1-4)[Fuc(a1-3)]GlcNAc(b1-2)Man(a1-6)]Man(b1-4)GlcNAc(b1-4)[Fuc(a1-6)]GlcNAc
# Method in brief: as §1
# [10] = target: Fuc(a1-2)Gal(b1-4)[Fuc(a1-3)]GlcNAc(b1-2)[Fuc(a1-2)Gal(b1-4)[Fuc(a1-3)]GlcNAc(b1-4)]Man(a1-3)[Fuc(a1-2)Gal(b1-4)[Fuc(a1-3)]GlcNAc(b1-2)Man(a1-6)]Man(b1-4)GlcNAc(b1-4)GlcNAc
# Method in brief: as §1
# [11] = target: Fuc(a1-2)Gal(b1-4)[Fuc(a1-3)]GlcNAc(b1-3)Gal(b1-4)[Fuc(a1-3)]GlcNAc
# Method in brief: as §1
# [12] = target: Fuc(a1-2)Gal(b1-4)[Fuc(a1-3)]GlcNAc(b1-3)Gal(b1-4)[Fuc(a1-3)]GlcNAc(b1-3)Gal(b1-4)[Fuc(a1-3)]GlcNAc
# Method in brief: as §1
# [13] = target: Fuc(a1-2)Gal(b1-4)[Fuc(a1-3)]GlcNAc(b1-3)GalNAc
# Method in brief: as §1
# [14] = target: Fuc(a1-2)Gal(b1-4)[Fuc(a1-3)]GlcNAc(b1-3)[Neu5Ac(a2-6)Gal(b1-4)GlcNAc(b1-6)]Gal(b1-4)Glc
# Method in brief: as §1
# [15] = target: Fuc(a1-2)Gal3S(b1-4)GlcNAc
# Method in brief: as §1
# [16] = target: Fuc(a1-2)Gal6S(b1-3)GlcNAc
# Method in brief: as §1
# [17] = target: Fuc(a1-2)Gal6S(b1-3)GlcNAc6S
# Method in brief: as §1
# Fuc(a1-2)Gal6S(b1-4)Glc = target: Fuc(a1-2)Gal6S(b1-4)Glc
# Method in brief: as §1
# [18] = target: Fuc(a1-2)Gal6S(b1-4)Glc6S
# Method in brief: as §1
# Fuc(a1-2)[Gal(a1-3)]Gal = target: Fuc(a1-2)[Gal(a1-3)]Gal
# Method in brief: as §1
# [19] = target: Fuc(a1-2)[Gal(a1-3)]Gal(b1-3)GalNAc
# Method in brief: as §1
# [20] = target: Fuc(a1-2)[Gal(a1-3)]Gal(b1-3)GalNAc(b1-3)Gal(a1-4)Gal(b1-4)Glc
# Method in brief: as §1
# [21] = target: Fuc(a1-2)[Gal(a1-3)]Gal(b1-3)GlcNAc
# Method in brief: as §1
# [22] = target: Fuc(a1-2)[Gal(a1-3)]Gal(b1-3)GlcNAc(b1-2)Man(a1-3)[Fuc(a1-2)[Gal(a1-3)]Gal(b1-3)GlcNAc(b1-2)Man(a1-6)]Man(b1-4)GlcNAc(b1-4)GlcNAc
# Method in brief: as §1
# [23] = target: Fuc(a1-2)[Gal(a1-3)]Gal(b1-3)GlcNAc(b1-2)Man(a1-3)[Fuc(a1-2)[Gal(a1-3)]Gal(b1-3)GlcNAc(b1-2)Man(a1-6)]Man(b1-4)GlcNAc(b1-4)[Fuc(a1-6)]GlcNAc
# Method in brief: as §1
# [24] = target: Fuc(a1-2)[Gal(a1-3)]Gal(b1-3)GlcNAc(b1-3)GalNAc
# Method in brief: as §1
# [25] = target: Fuc(a1-2)[Gal(a1-3)]Gal(b1-3)GlcNAc(b1-6)GalNAc
# Method in brief: as §1
# [26] = target: Fuc(a1-2)[Gal(a1-3)]Gal(b1-4)Glc
# Method in brief: as §1
# [27] = target: Fuc(a1-2)[Gal(a1-3)]Gal(b1-4)GlcNAc
# Method in brief: as §1
# [28] = target: Fuc(a1-2)[Gal(a1-3)]Gal(b1-4)GlcNAc(b1-2)Man
# Method in brief: as §1
binder,measurement,setting,value
B1,glycan array binding signal (z-score),[1],1.59
same,glycan array binding signal (z-score),[2],0.181
same,glycan array binding signal (z-score),[3],-0.58
same,glycan array binding signal (z-score),[4],-0.248
same,glycan array binding signal (z-score),[5],-0.151
same,glycan array binding signal (z-score),[6],-0.52
same,glycan array binding signal (z-score),[7],-1.16
same,glycan array binding signal (z-score),[8],0.698
same,glycan array binding signal (z-score),[9],0.643
same,glycan array binding signal (z-score),[10],-0.119
same,glycan array binding signal (z-score),[11],0.249
same,glycan array binding signal (z-score),[12],0.209
same,glycan array binding signal (z-score),[13],-0.352
same,glycan array binding signal (z-score),[14],0.595
same,glycan array binding signal (z-score),[15],0.083
same,glycan array binding signal (z-score),[16],-1.33
same,glycan array binding signal (z-score),[17],-0.535
same,glycan array binding signal (z-score),Fuc(a1-2)Gal6S(b1-4)Glc,0.127
same,glycan array binding signal (z-score),[18],-1.14
same,glycan array binding signal (z-score),Fuc(a1-2)[Gal(a1-3)]Gal,0.241
same,glycan array binding signal (z-score),[19],0.364
same,glycan array binding signal (z-score),[20],-1.56
same,glycan array binding signal (z-score),[21],-0.959
same,glycan array binding signal (z-score),[22],-0.637
same,glycan array binding signal (z-score),[23],-0.029
same,glycan array binding signal (z-score),[24],-0.684
same,glycan array binding signal (z-score),[25],0.707
same,glycan array binding signal (z-score),[26],0.657
same,glycan array binding signal (z-score),[27],-0.718
same,glycan array binding signal (z-score),[28],1.13

# Reprinted from the entries so far for reference:
binder,measurement,setting,value
B1,glycan array binding signal (z-score),[11],0.249
same,glycan array binding signal (z-score),[12],0.209
